PubChem BioAssay AID504774 | Drosophila RNAi Screening Center – 2011
In all, the deposit lists about 23,000 reagents; this is an unselected part of those with a known target gene and a result. 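Values are quantile-normalised luminescence on an arbitrary scale; higher means more cells surviving MMS.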 Reagents against one gene are numbered here. Names joined by + are all predicted targets of the reagent. Not all columns of the deposit are shown. Reagent sequences are not shown.

- Aim: 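Knock-downs that shift viability of MMS-exposed cells relative to untreated ones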 (primary screen)
- Cells: Drosophila Kc167 cells
- Knock-down reagent: long dsRNA against Drosophila genes, about 0.25 µg dsRNA per well
- Time to read-out: about 6 days: 3 days knock-down, then 3 days with or without MMS
- Conditions: methyl methanesulphonate 0.004% (w/v) for 3 days after knock-down
- Measured: 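Viability in wells given MMS, read as ATP luminescence, normalised by quantiles plate by plate and averaged across replicates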
- Scale: mean viability with MMS and viability with MMS: higher = more surviving cells after MMS

Actbeta #1: mean viability with MMS = 3.58e6; viability with MMS, replicate 1 = 4.06e6
Actbeta #2: mean viability with MMS = 3.58e6; viability with MMS, replicate 1 = 4.05e6
brat: mean viability with MMS = 3.35e6; viability with MMS, replicate 1 = 3.63e6
shf: mean viability with MMS = 3.54e6; viability with MMS, replicate 1 = 3.95e6
CG13667: mean viability with MMS = 3.62e6; viability with MMS, replicate 1 = 4.07e6
CG6067: mean viability with MMS = 3.49e6; viability with MMS, replicate 1 = 3.93e6
CG4631 #1: mean viability with MMS = 3.30e6; viability with MMS, replicate 1 = 3.86e6
CG4631 #2: mean viability with MMS = 3.73e6; viability with MMS, replicate 1 = 4.18e6
CG30383: mean viability with MMS = 3.52e6; viability with MMS, replicate 1 = 4.13e6
exd: mean viability with MMS = 3.55e6; viability with MMS, replicate 1 = 4.06e6
l(3)73Ah + CG32163: mean viability with MMS = 3.62e6; viability with MMS, replicate 1 = 4.09e6
ATPsynGL: mean viability with MMS = 3.59e6; viability with MMS, replicate 1 = 4.33e6
Daao1: mean viability with MMS = 3.49e6; viability with MMS, replicate 1 = 3.86e6
Ndae1 #1: mean viability with MMS = 3.36e6; viability with MMS, replicate 1 = 3.81e6
Ndae1 #2: mean viability with MMS = 3.53e6; viability with MMS, replicate 1 = 3.92e6
CG33062: mean viability with MMS = 3.53e6; viability with MMS, replicate 1 = 3.98e6
CR40441: mean viability with MMS = 3.64e6; viability with MMS, replicate 1 = 4.01e6
CG12539: mean viability with MMS = 3.50e6; viability with MMS, replicate 1 = 3.96e6
Ccp84Aa: mean viability with MMS = 3.55e6; viability with MMS, replicate 1 = 4.05e6
vret: mean viability with MMS = 3.58e6; viability with MMS, replicate 1 = 4.07e6
APC7: mean viability with MMS = 3.50e6; viability with MMS, replicate 1 = 4.06e6
alpha-Est6: mean viability with MMS = 3.33e6; viability with MMS, replicate 1 = 3.73e6
CG9555: mean viability with MMS = 3.81e6; viability with MMS, replicate 1 = 3.97e6
zfh1 #1: mean viability with MMS = 3.54e6; viability with MMS, replicate 1 = 3.96e6
zfh1 #2: mean viability with MMS = 3.34e6; viability with MMS, replicate 1 = 3.78e6
CG15449: mean viability with MMS = 3.62e6; viability with MMS, replicate 1 = 4.13e6
Ccn #1: mean viability with MMS = 3.54e6; viability with MMS, replicate 1 = 3.83e6
Ccn #2: mean viability with MMS = 3.47e6; viability with MMS, replicate 1 = 4.05e6
Ccn #3: mean viability with MMS = 3.77e6; viability with MMS, replicate 1 = 4.18e6
Ccn #4: mean viability with MMS = 3.49e6; viability with MMS, replicate 1 = 3.85e6
Loxl2: mean viability with MMS = 3.61e6; viability with MMS, replicate 1 = 4.29e6
sni: mean viability with MMS = 3.57e6; viability with MMS, replicate 1 = 4.26e6
CG31820: mean viability with MMS = 3.57e6; viability with MMS, replicate 1 = 3.90e6
CG42579: mean viability with MMS = 3.53e6; viability with MMS, replicate 1 = 4.04e6
mus201 + Chrac-14 #1: mean viability with MMS = 3.58e6; viability with MMS, replicate 1 = 4.06e6
mus201 + Chrac-14 #2: mean viability with MMS = 3.26e6; viability with MMS, replicate 1 = 3.60e6

4 neighbouring reagents from above, quoted:
l(3)73Ah + CG32163: mean viability with MMS = 3.62e6; viability with MMS, replicate 1 = 4.09e6
ATPsynGL: mean viability with MMS = 3.59e6; viability with MMS, replicate 1 = 4.33e6
Daao1: mean viability with MMS = 3.49e6; viability with MMS, replicate 1 = 3.86e6
Ndae1 #1: mean viability with MMS = 3.36e6; viability with MMS, replicate 1 = 3.81e6
